Publication PMC8906905
No constants are given. Whether binding was seen depends on the method and setting. In cells and extracts the contact can be indirect. Some binding calls cover weakened binding; strength is not graded here. Tags and fused reporters may be left off the sequences shown.

The chains behind the UniProt entries cited, without tags or fusion partners. Where a name states a change or a piece, a line headed by the entry shows the natural chain unless it says otherwise.
UniProt P05556: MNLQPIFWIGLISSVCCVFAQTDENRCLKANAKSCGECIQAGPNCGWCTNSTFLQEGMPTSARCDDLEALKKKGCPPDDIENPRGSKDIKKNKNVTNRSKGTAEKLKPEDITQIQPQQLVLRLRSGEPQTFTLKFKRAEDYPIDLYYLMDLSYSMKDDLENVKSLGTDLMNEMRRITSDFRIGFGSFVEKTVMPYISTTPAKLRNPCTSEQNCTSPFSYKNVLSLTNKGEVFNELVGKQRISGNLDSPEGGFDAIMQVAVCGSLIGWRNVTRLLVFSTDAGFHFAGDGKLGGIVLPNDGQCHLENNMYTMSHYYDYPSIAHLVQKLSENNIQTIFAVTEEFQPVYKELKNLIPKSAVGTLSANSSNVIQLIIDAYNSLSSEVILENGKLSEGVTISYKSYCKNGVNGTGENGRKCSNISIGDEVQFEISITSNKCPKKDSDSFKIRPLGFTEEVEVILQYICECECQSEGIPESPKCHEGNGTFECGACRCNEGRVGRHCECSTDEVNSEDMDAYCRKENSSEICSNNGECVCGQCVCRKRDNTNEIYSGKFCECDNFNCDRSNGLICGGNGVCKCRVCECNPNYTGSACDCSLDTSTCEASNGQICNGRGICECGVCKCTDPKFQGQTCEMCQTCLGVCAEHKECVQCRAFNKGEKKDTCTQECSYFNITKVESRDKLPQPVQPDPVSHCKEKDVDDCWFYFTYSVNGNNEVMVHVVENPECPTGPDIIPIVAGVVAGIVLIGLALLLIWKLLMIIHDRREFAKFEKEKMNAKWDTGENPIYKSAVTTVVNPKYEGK

Biological target: T1, FLAG-tagged Tspan9 (tetraspanin-9), stably expressed in U2OS cells (human) (UniProt O75954)
T1 sequence: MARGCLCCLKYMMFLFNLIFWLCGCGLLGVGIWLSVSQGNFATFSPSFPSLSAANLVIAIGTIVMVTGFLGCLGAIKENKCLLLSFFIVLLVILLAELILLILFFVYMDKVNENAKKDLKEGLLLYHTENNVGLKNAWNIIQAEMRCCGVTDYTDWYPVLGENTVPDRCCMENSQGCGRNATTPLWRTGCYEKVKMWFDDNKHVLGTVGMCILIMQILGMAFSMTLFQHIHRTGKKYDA
Assay: co-IP; RIPA lysates of U2OS cells expressing FLAG-tagged Tspan9 or control constructs, anti-Flag M2 agarose beads, 4°C for 2 h, washed three times with PBS, Western blotting

In the case of “integrin β1, endogenous in U2OS cells (from UniProt P05556 21-798) (receptor)”, the binding is reported as “binds”.
